Reference: PMC8274477
Results are given in words; binding and its absence hold for the method and conditions named. Some results given as binding are weak or reduced against the parent protein; the word gives no strength.

Chains of the proteins cited; added tags and fusions are not shown.
UniProt Q8IU81: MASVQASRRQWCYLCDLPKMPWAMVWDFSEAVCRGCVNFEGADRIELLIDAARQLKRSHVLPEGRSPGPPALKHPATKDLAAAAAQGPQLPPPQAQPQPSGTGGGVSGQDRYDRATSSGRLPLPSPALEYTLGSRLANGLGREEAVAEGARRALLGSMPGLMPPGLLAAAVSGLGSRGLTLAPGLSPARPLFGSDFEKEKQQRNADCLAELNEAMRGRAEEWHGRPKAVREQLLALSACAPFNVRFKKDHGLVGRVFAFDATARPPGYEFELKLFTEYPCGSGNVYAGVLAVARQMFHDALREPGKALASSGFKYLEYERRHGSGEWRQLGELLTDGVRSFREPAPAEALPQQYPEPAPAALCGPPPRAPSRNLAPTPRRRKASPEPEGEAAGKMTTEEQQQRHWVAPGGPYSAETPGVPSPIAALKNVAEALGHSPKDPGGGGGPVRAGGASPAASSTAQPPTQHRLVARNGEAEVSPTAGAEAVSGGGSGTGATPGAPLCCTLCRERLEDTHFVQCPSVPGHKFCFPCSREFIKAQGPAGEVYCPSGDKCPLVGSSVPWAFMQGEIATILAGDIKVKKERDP

Experiments:
Assay in all cases: peptide or protein array; HuProt human proteome microarray; 5 ug/5 ml biotin-labelled LUBAC or OTULIN in solution, 1 h at room temperature; Cy5-streptavidin, scanned at 635 nm; BSA as negative control; hits: Z-score >= 3 and I_(Mean_Ratio) >= 1.4; both purified
GCLM (human) = molecular target: T1, GCLM (human) (UniProt P48507)
T1 sequence: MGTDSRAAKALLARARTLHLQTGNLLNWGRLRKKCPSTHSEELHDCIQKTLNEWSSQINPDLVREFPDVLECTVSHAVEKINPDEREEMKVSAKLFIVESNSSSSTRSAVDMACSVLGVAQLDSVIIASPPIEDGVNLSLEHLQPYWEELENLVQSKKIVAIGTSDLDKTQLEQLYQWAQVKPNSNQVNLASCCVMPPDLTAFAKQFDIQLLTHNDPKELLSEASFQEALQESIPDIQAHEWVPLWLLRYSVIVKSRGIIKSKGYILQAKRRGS

NUPL2 (human) = molecular target: T2, NUPL2 (human) (UniProt O15504)
T2 sequence: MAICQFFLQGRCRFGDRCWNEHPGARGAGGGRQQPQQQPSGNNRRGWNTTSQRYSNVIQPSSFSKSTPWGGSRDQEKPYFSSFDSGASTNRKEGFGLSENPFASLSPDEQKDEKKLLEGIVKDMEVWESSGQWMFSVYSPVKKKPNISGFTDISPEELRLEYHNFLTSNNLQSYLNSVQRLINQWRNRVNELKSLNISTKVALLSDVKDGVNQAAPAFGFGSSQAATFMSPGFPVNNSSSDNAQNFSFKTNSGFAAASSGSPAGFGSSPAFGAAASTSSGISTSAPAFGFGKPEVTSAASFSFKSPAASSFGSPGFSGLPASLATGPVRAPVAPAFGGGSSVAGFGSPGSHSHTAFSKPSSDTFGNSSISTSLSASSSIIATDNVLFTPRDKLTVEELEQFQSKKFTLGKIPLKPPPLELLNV

NTPCR (human) = molecular target: T3, NTPCR (human) (UniProt Q9BSD7)
T3 sequence: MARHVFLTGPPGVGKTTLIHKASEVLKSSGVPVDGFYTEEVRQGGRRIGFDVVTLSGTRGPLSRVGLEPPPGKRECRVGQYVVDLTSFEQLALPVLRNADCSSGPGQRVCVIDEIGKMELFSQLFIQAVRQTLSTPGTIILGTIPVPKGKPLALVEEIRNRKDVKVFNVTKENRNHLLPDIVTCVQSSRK

IRF2BP1 (human) = IRF2BP1 (human) (UniProt Q8IU81)
FAAH2 (human) = molecular target: T4, FAAH2 (human) (UniProt Q6GMR7)
T4 sequence: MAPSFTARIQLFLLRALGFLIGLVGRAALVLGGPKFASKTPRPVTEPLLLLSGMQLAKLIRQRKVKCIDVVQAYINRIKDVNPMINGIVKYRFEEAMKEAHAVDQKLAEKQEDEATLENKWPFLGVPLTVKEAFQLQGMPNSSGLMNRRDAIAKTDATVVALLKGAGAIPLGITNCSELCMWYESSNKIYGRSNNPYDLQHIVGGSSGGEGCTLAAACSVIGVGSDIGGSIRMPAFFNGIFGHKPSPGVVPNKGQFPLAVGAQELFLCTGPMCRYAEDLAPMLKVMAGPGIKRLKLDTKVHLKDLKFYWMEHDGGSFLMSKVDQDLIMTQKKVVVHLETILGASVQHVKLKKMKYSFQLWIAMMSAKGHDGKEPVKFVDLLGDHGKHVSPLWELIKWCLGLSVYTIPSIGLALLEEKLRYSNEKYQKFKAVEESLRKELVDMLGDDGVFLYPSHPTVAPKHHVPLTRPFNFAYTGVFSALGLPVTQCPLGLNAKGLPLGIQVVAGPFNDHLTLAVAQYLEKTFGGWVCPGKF

KLHDC9 (human) = molecular target: T5, KLHDC9 (human) (UniProt Q8NEP7)
T5 sequence: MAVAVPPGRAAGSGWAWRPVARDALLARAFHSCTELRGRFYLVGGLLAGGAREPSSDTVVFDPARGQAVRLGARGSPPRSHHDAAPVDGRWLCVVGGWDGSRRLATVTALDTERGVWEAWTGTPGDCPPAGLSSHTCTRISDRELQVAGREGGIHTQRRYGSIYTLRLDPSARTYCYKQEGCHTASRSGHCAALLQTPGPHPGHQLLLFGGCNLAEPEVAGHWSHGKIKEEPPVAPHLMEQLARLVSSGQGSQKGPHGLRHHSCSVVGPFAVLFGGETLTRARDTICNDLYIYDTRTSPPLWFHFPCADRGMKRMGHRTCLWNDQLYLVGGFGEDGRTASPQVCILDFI

Measured: binding

linear ubiquitin chain assembly complex (LUBAC), purified as HIS-tagged HOIP with the subunit HOIL-1, biotin-labelled (from UniProt Q96EP0 1-1072; Q9BYM8 1-510)
binds: all assays above
